Reference: patent publication US20150337031A1 (CELYAD S A, published 2015)
Results are given in words; binding and its absence hold for the method and conditions named. Some entries that bind do so weakly or less than the wild type. Sequences can lack the tags named with a protein.

Amino acid sequences for entries named in this document (tags omitted). A change or cut given only in a name is not applied to a line headed by its entry.
UniProt Q06413: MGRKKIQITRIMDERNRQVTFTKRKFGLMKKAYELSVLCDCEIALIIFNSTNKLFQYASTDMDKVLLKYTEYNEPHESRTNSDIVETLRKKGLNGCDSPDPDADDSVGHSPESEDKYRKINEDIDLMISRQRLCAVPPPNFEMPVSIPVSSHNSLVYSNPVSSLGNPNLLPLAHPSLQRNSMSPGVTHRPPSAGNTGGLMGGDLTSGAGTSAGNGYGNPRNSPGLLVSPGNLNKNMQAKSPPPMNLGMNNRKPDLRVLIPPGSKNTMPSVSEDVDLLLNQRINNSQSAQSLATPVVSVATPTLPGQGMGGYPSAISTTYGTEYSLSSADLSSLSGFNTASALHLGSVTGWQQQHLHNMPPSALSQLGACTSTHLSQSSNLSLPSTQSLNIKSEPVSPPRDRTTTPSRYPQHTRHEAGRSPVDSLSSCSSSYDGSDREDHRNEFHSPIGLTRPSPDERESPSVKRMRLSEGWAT

What was measured:
[1] = target: MEF2C in nuclei of BMMSCs and Cardiac lineage committed cells; assay: immunofluorescence on fixed, permeabilised cells, staining conditions of Example 2
[2] = target: MEF2C (Myocyte-specific enhancer factor 2C) expressed from a MEF2C coding vector in transfected cells (human) (UniProt Q06413); assay: Western blot of extracts of transfected cells, antibody diluted 1:500
[3] = target: Flag-tagged full length MEF2C protein expressed in transfected HeLa cells (Origene MEF2C (NM-002397) Human cDNA ORF Clone) (human) (UniProt Q06413); assay: immunofluorescence on transfected HeLa cells
[4] = target: MEF2C (Myocyte-specific enhancer factor 2C) expressed from a MEF2C coding vector in transfected cells (human) (UniProt Q06413); assay: Western blot of extracts of transfected cells (figure legend)
[5] = target: Flag-tagged full length MEF2C protein expressed in transfected HeLa cells (Origene MEF2C (NM-002397) Human cDNA ORF Clone) (human) (UniProt Q06413); assay: immunofluorescence on HeLa cells transfected with Flag-tagged MEF2C, 3 mg/ml stock diluted 1:3000
[6] = target: MEF2C in nuclei of BMMSCs and Cardiac lineage committed cells; assay: immunofluorescence, histogram of mean nuclear fluorescence intensity in intervals of 7.5 units
[7] = target: MEF2C in nuclei of BMMSCs and Cardiac lineage committed cells; assay: immunofluorescence, mean nuclear fluorescence intensity of single nuclei

Measured: binding

B1: anti-MEF2C monoclonal antibody produced by the hybridoma cell line deposited with BCCM/LMBP under Accession No. LMBP 9949CB (antibody, V domains shown)
VH: EVQLQQSGPELVKPGASVKISCKASAYSFTGYFMNWVKQSHGKSLEWIGRINPYNGNTFYNQNFKGKATLTVDRSSSTAHMQILSLTSEDSTVYYCGREGATGAMDYWGQGTSVTVLP
VL: DVVMTQTPLSLPVSLGDQASISCRSSQSLVHSNGDTYLHWYLQMPGQSPRLLIYKVSNRFSGVPDRFSGSGSGTDFTLKISRVEAEDLGVYFCSQSTHVPPTFGGGTKLEIK
notes: IgG from a mouse hybridoma (detected with anti-mouse IgG); also called anti-MEF2C mAb; α MEF2C
binds: all assays above
